Test results: US8129137B2, “Two-photon probe for real-time monitoring of intracellular free zinc ions, method for preparing the probe and method for real-time monitoring of intracellular free zinc ions using the probe” (Korea University Industrial & Academic Collaboration …, priority 2008, dated 2012)
Some of these results come from one statement about several compounds together.

Assay: Two-photon cross section and action spectra
Type: physicochemical
Conditions: Zn2+ complexes, 780 nm
Experimental: The two-photon cross section (δ) was determined by using femto second (fs) fluorescence measurement technique.
The intensities of the two-photon induced fluorescence spectra of the reference and the sample probe were measured, and the two-photon cross section of the sample probe was calculated according to Equation 3:
[formula] wherein the subscripts s and r represent sample and reference molecules, respectively, δ represents the two-photon cross section, S represents the strength of signals collected by a CCD detector, φ represents the fluorescence quantum efficiency, φrepresents the total fluorescence collection efficiency of an experimental system, c represents the number density of the molecules within each of the solutions, and δr represents the two-photon cross section of reference molecules.
Referring to FIG. 9, the two-photon action spectra of the Zn^2+ complexes with AZn1 and AZn2 in the buffer solutions indicated a φδ value of ˜90 GM at 780 nm, 4˜24-fold larger than those of TSQ and FluZin-3.

SMILES | φδ / TPEF relative to TSQ and FluZin-3
Nc1ccc(NCCN(Cc2ccccn2)Cc2ccccn2)cc1 [AZn1] | 4˜24 fold
COc1cc(NC(=O)CN(C)c2ccc3cc(C(C)=O)ccc3c2)ccc1NCCN(Cc1ccccn1)Cc1ccccn1 [AZn2] | 4˜24 fold
